{"source": "patent US11485776B2", "about": "“Antibodies against infectious diseases” (priority 2015, dated 2022)", "molecules": {"B1": {"name": "CaS1 scFv: anti-CaENO1 scFv monoclonal antibody from chicken phage library; light chain SEQ ID NO:11, heavy chain SEQ ID NO:12 (antibody, V domains shown)", "VH": "TVTLDESGGGLQTPRGALSLVCKASGFTFIDYGMQWVRQAPGKGLEWVAGIGSSGSSTNYGAAVKGRATISRDDGQSTVRLQLNNLRAEDTGTYYCAKSAGGYCVNGAGCNGGSIDAWGHGTEVIVSS", "VL": "ALTQPSSVSANLGGTVKITCSGGSGSYGWYQQKSPGSAPVTVIYSNNQRPSNIPSRFSGSPSGSTGTLTITGVQADDEAVYFCGSRDSSYVGVFGAGTTLTVL", "modifications": "scFv linker; amino acid sequence comprised in a heavy chain of an anti-CaENO1 scFv monoclonal antibody (CaS1); amino acid sequence comprised in a light chain of an anti-CaENO1 scFv monoclonal antibody (CaS1)"}}, "test_system": "CaENO1", "note": "“And” between values parts separate entries of the source, which are not always exact repeats. Identical values can stand only once."}
{"molecule": "B1", "values": [{"measurement": "Epitope on CaENO1", "result": "residues 235 to 300 and 240[…]249 (SEQ ID NO:3) and 278[…]292"}]}
